Screen size: about 53,000 sequences; about 3,700 (7%) were called active.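 How the source made its calls: active means gene knockdowns whose robust z-score for IL-1 alpha signal is at least 2 or at most -2, so actives lie on both sides; inactive means the rest.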 Some of the results follow.
Test: Components of the Cytosolic LPS Sensing Pathway: Gene Identification via Genome-wide siRNA Screen;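 further: robust z of the log signal after scaling to non-targeting control siRNA wells of the plate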
Details: RAW264.7 macrophages, IL-1a HTRF, actives lie on both sides, screened at 100 nM (by protocol), cells primed 5 h with Pam3CSK4 first
Method in brief: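 Three distinct siRNAs per gene were tested singly at 100 nM in RAW264.7 macrophages. Following Pam3CSK4 priming and 24 hour LipidA transfection, IL-1a secretion was read by HTRF.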

Sequence	z-score
CCUUCUUGCUCACAAAGUATT against Kcnt1	inactive: 1.1
GGCAUCUCUUUGCUUGAAUTT against Lalba	inactive: -0.86
GCAUCUUACGCAUUAAAUCTT against Olfr935	inactive: -1.83
CGUUUUAUGUGGCAAGCAUTT against Olfr1306	inactive: 0.883
GGAGUGUACAUUCUGAUUGTT against Cd9	inactive: -0.677
GCAAGUCCUAGUGUCCUGATT against N6amt1	inactive: -0.213
GGAUGUCCUUGUUUCCUUCTT against Sult5a1	inactive: -0.879
CCUGUUUCAGUCAUUAGUGTT against Slc22a2	active: 2.6
GGAAAUAGAUUCAUUGAAGTT against Slc6a14	inactive: 0.342
GGCCUUAUGUCUUGUAUAUTT against Pip5k1b	inactive: 0.21
GCCUAUGUACUGGUCAAGCTT against Atg2b	inactive: 1.6
GGGUAGAAUGACUUUGGCCTT against Cldn2	inactive: 1.19
GGAGAUUAACCGGAGAAUGTT against Ptpra	inactive: 1.26
GGCUGAGAAGCAAAAACUCTT against Olfr1496	inactive: -0.686
GGAGCAGUGCAUUGAGACCTT against Adcy6	active: 2.34
GGAGAAGCUGAAAUUGAAATT against Cfi	inactive: -0.204
GGGUAACAUGAAGAUCAAUTT against Rnf19a	inactive: 0.488
GCACUCCUGAACCAUUCUCTT against Tubb4a	inactive: 0.0643
GCACACGUUACAAUUACAGTT against Cxcr2	inactive: -0.231
UUUGCUGUCCUUUCUUUCATT against Olfr122	inactive: -1.84
GCUUGUAGUGACUGCCUAUTT against Vmn1r30	inactive: -0.296
GGCUUCAUUUACUGUAACGTT against Flrt3	inactive: -0.12
GCACCUAGCAUAGCAAUGGTT against Slc24a1	inactive: 0.695

Retrieved one by one from the list above, four records:
Sequence	z-score
UUUGCUGUCCUUUCUUUCATT against Olfr122	inactive: -1.84
GGCAUCUCUUUGCUUGAAUTT against Lalba	inactive: -0.86
GCACACGUUACAAUUACAGTT against Cxcr2	inactive: -0.231
GCAUCUUACGCAUUAAAUCTT against Olfr935	inactive: -1.83

Continuation:

Sequence	z-score
CCCAGAAAUUUCAACUACATT against Cd300ld3	inactive: 0.0923
GCGGGCCAUGACAAUUACUTT against Slc45a1	inactive: 0.566
GCCUAAGGCGCAUAAAUUCTT against Lca5l	inactive: -0.647
GGCAGGUGUUAAGGCUUCATT against Tas2r117	inactive: 0.873
GGUAUUCCUGUCUCAGGUCTT against Matn1	inactive: -0.59
GGAAGAAGUACUGAGAAGATT against Ctsq	inactive: -0.0505
GCGUAGCCCUCAUAAGUCUTT against Ppp1r35	inactive: 0.713
GGUAAUUUUCCAGAGCCAUTT against Adad1	inactive: -1.2
GGGACAUUAAUAAACCUGATT against Omg	inactive: -0.269
CGGUGAUGGUUCAUUUGCATT against Zmiz2	inactive: 1.36
GGGAAAAUUUCAAUGAGAGTT against Slc16a10	inactive: 0.341
CCAUUUAUGGGUUUUCUCUTT against Taar7b	inactive: 0.12
GCAGCAAUUUCGGGUACUCTT against Gfus	inactive: 1.11
GCAACUAUUACUUAGCCAUTT against Fgf10	inactive: 0.514
GCAUCUCUCCAACCUUCCGTT against Amer2	inactive: 0.46
CCAUCUUACUGAAUACAAATT against Iqgap1	inactive: 1.3
GGCAUUGCAUUCUCACAUGTT against Gabarapl1	inactive: 0.319
GCUGUUUCAAAAGUCAUAUTT against Col11a1	inactive: 1.96
CCUUCUCUUUGCUCUAUGUTT against Olfr1284	inactive: -0.647
GCCUGUCCUAAACUUGACCTT against Cdh13	inactive: -0.775
CGAGCAAAUCUCAUUCAAGTT against Oxgr1	active: 3.07
GCUACACGAAGAGGAACUUTT against Prph	inactive: -0.523
GGGAGUAGAGAAGAAGGUGTT against Dpf3	inactive: 0.569

Sequence	z-score
GGAAGAAAAAACCUUCUGGTT against Ccdc70	inactive: -0.0176
CCUCUUAUAUGCAUGUGGCTT against Olfr410	active: -2.13
GCGACUACUACACAGACGATT against Ext2	inactive: 0.127
GGGAUUAUCAUGCUUCAGATT against Tmem87a	inactive: 0.824
GGCAUCUUUUGAAACAAUATT against Ubxn8	inactive: -1.04
GGUGGUUUUCCUCCUCUGUTT against Kdelr3	inactive: -1.69
GGCUGAAGAGGUUUUACGATT against Cyria	inactive: -0.415
GGAUCAUGCAAACCAAAGCTT against 4930522H14Rik	inactive: 0.193
CGUGCUGGUAACGGAAUUGTT against Ptger2	active: 2.29
GAGUGAGAAAGCCAGAGACTT against Acaa1a	inactive: 0.188
GGACUGCAUCUUUAAAGAATT against Aasdh	inactive: 1.59
GGCAGUGUGUUAGAUUCUUTT against Cts3	active: 2.35
CCAAGGUGAGGACUUUCCATT against Erp29	inactive: -0.387
CCAAAGAAGUUGACUUUUCTT against Rhpn2	inactive: -0.629
CGAUUCCUGGACCAUUGUUTT against Tm6sf1	inactive: 0.264
GGAAAGAAGUAUGCCCACATT against Acp5	inactive: -1.63
GCAGAAUUGAAUAUUAAGCTT against Upk1b	inactive: 1.27
GGAGUAAUGAUAAGCCCUCTT against Tex264	inactive: -0.0637
CCCAAUGCUUGGUGCCUUUTT against C1qtnf2	inactive: -0.872
GGCGUAGGGCCAUAUCAUUTT against Olfr109	inactive: -0.117
GGCCUUGAAUAGAAAAUGGTT against Olfr1055	inactive: -1.21
CGCAAAAACUGGUGUAACCTT against Arhgef1	inactive: -0.958

Reference: PubChem BioAssay AID1508600 (Functional Genomics Laboratory (NCATS/FGL), 2020)
